The record followed here is publication PMC10240827.

The chains behind the UniProt entries cited, without tags or fusion partners. Residues count along the entry.
UniProt Q9QUK6, residues 26-835: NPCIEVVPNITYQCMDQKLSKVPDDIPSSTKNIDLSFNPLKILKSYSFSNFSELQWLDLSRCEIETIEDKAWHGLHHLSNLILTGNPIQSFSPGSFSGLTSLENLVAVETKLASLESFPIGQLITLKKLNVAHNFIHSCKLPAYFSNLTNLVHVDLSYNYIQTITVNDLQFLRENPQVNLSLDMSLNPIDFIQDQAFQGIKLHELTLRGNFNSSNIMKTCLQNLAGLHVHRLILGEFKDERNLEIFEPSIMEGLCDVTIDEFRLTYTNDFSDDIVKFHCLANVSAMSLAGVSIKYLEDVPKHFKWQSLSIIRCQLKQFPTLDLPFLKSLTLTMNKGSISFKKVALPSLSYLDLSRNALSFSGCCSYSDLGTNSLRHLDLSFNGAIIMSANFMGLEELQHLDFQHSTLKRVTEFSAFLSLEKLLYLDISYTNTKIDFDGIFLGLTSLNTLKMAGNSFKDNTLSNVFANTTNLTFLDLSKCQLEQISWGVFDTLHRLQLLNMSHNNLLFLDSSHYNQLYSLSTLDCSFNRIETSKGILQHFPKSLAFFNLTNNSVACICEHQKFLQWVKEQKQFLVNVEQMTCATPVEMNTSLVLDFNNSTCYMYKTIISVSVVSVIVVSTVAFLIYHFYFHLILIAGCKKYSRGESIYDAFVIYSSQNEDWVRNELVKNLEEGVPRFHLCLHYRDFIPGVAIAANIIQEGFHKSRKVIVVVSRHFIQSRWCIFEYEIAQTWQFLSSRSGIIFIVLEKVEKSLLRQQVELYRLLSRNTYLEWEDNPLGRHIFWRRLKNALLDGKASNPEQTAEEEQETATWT
UniProt P63158: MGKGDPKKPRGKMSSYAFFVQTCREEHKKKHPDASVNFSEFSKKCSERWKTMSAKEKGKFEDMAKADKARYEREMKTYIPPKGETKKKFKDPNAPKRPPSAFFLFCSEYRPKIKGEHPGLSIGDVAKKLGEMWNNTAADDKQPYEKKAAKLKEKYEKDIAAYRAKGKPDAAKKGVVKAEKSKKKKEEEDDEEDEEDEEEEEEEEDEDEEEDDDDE

The target of the assay is Toll-like receptor 4 (TLR4) (mouse (endogenous in BUMPT)) (UniProt Q9QUK6). The assay is described as follows: co-IP; lysate of RLDC-treated BUMPT cells (150 mM NaCl, 5% glycerol, 50 mM Tris HCl pH 8.0, 1 mM MgCl2, 1.0% NP40); precipitated with anti-HMGB1, anti-TLR4 or control IgG overnight at 4 °C, Protein A/G PLUS-Agarose; immunoblot.

These are yes or no findings as the source states them, for the method shown. Binding seen in cells or lysates may run through a third protein. Some entries that bind do so weakly or less than the wild type.

On to “high-mobility group box 1 (HMGB1) (from UniProt P63158 1-215)”, for which the binding entry is given as “binds”.
